Measured values reported in publication PMC5533585.
Results are given in words; binding and its absence hold for the method and conditions named. Binding seen in cells or lysates may run through a third protein. Here binding means that the protein was enriched with, or labelled near, the bait; the list need not be complete. For part of these data: Tags and fused reporters may be left off the sequences shown.

Protein sequences, listed by entry. Tags and fused reporters are not part of them.
UniProt Q8TD16: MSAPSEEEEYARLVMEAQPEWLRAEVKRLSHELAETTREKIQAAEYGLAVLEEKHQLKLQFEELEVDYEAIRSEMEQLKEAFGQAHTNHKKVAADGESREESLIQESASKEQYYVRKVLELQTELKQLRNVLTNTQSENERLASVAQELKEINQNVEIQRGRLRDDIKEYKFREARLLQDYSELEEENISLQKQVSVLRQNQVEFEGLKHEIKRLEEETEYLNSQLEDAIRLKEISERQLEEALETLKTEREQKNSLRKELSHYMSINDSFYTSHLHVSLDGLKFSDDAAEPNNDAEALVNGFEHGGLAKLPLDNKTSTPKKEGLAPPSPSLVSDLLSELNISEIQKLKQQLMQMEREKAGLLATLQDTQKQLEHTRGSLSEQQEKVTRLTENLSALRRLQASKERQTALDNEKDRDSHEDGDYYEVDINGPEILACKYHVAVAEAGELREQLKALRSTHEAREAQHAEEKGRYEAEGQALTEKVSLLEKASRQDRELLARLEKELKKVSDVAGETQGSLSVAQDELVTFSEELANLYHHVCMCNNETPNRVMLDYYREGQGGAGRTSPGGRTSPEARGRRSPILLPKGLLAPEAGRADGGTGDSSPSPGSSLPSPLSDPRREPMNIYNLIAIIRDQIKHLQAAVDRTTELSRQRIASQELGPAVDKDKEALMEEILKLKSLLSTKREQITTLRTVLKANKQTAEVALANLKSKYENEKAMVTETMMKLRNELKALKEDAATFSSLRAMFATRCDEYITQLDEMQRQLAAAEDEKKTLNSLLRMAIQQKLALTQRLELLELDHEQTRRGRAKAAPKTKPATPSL

T1: HOOK3-BioID-3×FLAG (human) (UniProt Q86VS8)
T1 sequence: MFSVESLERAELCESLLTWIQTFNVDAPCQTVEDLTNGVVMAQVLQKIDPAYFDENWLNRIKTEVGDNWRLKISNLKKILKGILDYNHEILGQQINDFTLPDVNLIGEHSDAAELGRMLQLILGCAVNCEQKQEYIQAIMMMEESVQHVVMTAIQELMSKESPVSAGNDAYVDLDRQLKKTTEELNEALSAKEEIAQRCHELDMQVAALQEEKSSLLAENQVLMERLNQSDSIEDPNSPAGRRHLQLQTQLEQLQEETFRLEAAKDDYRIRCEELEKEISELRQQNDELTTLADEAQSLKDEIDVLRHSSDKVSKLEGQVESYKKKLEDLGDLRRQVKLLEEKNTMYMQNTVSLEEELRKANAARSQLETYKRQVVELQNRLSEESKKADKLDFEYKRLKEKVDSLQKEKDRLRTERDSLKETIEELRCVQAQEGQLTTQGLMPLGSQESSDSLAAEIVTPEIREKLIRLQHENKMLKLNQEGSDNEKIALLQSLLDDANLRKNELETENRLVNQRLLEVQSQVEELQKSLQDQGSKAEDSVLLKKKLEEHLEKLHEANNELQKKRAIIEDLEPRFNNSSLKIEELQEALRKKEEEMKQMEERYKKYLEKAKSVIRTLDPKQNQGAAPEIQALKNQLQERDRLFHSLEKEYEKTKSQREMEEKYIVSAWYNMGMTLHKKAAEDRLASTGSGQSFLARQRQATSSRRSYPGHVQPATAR


What was measured:
Experiment in all cases: proximity labelling; BioID in living stable HEK-293 cells, 50 µM biotin for 16 hr; lysis in RIPA buffer; streptavidin beads; MS/MS; hits >3-fold enriched over a BioID alone control
[1] = biological target: BICD2 tagged with BioID (BICD2 datasets; N- or C-terminal fusion not told) (human) (UniProt Q8TD16)
IC2-BioID-3×FLAG (human) = biological target: IC2-BioID-3×FLAG (human)
[2] = biological target: T1, HOOK3-BioID-3×FLAG (human)

binding (IC2-BioID-3×FLAG (human)) | binding [2] | Binder | binding [1]
binds |  | BICD1 (protein, UniProt Q96G01 1-975) MAAEEVLQTVDHYKTEIERLTKELTETTHEKIQAAEYGLVVLEEKLTLKQQYDELEAEYDSLKQELEQLKEAFGQSFSIHRKVAEDGETREETLLQESASKEAYYLGKILEMQNELKQSRAVVTNVQAENERLTAVVQDLKENNEMVELQRIRMKDEIREYKFREARLLQDYTELEEENITLQKLVSTLKQNQVEYEGLKHEIKRFEEETVLLNSQLEDAIRLKEIAEHQLEEALETLKNEREQKNNLRKELSQYISLNDNHISISVDGLKFAEDGSEPNNDDKMNGHIHGPLVKLNGDYRTPTLRKGESLNPVSDLFSELNISEIQKLKQQLMQVEREKAILLANLQESQTQLEHTKGALTEQHERVHRLTEHVNAMRGLQSSKELKAELDGEKGRDSGEEAHDYEVDINGLEILECKYRVAVTEVIDLKAEIKALKEKYNKSVENYTDEKAKYESKIQMYDEQVTSLEKTTKESGEKMAHMEKELQKMTSIANENHSTLNTAQDELVTFSEELAQLYHHVCLCNNETPNRVMLDYYRQSRVTRSGSLKGPDDPRGLLSPRLARRGVSSPVETRTSSEPVAKESTEASKEPSPTKTPTISPVITAPPSSPVLDTSDIRKEPMNIYNLNAIIRDQIKHLQKAVDRSLQLSRQRAAARELAPMIDKDKEALMEEILKLKSLLSTKREQIATLRAVLKANKQTAEVALANLKNKYENEKAMVTETMTKLRNELKALKEDAATFSSLRAMFATRCDEYVTQLDEMQRQLAAAEDEKKTLNTLLRMAIQQKLALTQRLEDLEFDHEQSRRSKGKLGKSKIGSPKVSGEASVTVPTIDTYLLHSQGPQTPNIRVSSGTQRKRQFSPSLCDQSRPRTSGASYLQNLLRVPPDPTSTESFLLKGPPSMSEFIQGHRLSKEKRLTVAPPDCQQPAASVPPQCSQLAGRQDCPTVSPDTALPEEQPHSSSQCAPLHCLSKPPHP | binds
 | binds | KIF1C (protein, UniProt O43896 1-1103) MAGASVKVAVRVRPFNARETSQDAKCVVSMQGNTTSIINPKQSKDAPKSFTFDYSYWSHTSTEDPQFASQQQVYRDIGEEMLLHAFEGYNVCIFAYGQTGAGKSYTMMGRQEPGQQGIVPQLCEDLFSRVSENQSAQLSYSVEVSYMEIYCERVRDLLNPKSRGSLRVREHPILGPYVQDLSKLAVTSYADIADLMDCGNKARTVAATNMNETSSRSHAVFTIVFTQRCHDQLTGLDSEKVSKISLVDLAGSERADSSGARGMRLKEGANINKSLTTLGKVISALADMQSKKRKSDFIPYRDSVLTWLLKENLGGNSRTAMIAALSPADINYEETLSTLRYADRTKQIRCNAIINEDPNARLIRELQEEVARLRELLMAQGLSASALEGLKTEEGSVRGALPAVSSPPAPVSPSSPTTHNGELEPSFSPNTESQIGPEEAMERLQETEKIIAELNETWEEKLRKTEALRMEREALLAEMGVAVREDGGTVGVFSPKKTPHLVNLNEDPLMSECLLYHIKDGVTRVGQVDMDIKLTGQFIREQHCLFRSIPQPDGEVVVTLEPCEGAETYVNGKLVTEPLVLKSGNRIVMGKNHVFRFNHPEQARLERERGVPPPPGPPSEPVDWNFAQKELLEQQGIDIKLEMEKRLQDLENQYRKEKEEADLLLEQQRLYADSDSGDDSDKRSCEESWRLISSLREQLPPTTVQTIVKRCGLPSSGKRRAPRRVYQIPQRRRLQGKDPRWATMADLKMQAVKEICYEVALADFRHGRAEIEALAALKMRELCRTYGKPDGPGDAWRAVARDVWDTVGEEEGGGAGSGGGSEEGARGAEVEDLRAHIDKLTGILQEVKLQNSSKDRELQALRDRMLRMERVIPLAQDHEDENEEGGEVPWAPPEGSEAAEEAAPSDRMPSARPPSPPLSSWERVSRLMEEDPAFRRGRLRWLKQEQLRLQGLQGSGGRGGGLRRPPARFVPPHDCKLRFPFKSNPQHRESWPGMGSGEAPTPLQPPEEVTPHPATPARRPPSPRRSHHPRRNSLDGGGRSRGAGSAQPEPQHFQPKKHNSYPQPPQPYPAQRPPGPRYPPYTTPPRMRRQRSAPDLKESGAAV | 
